# Measurements from patent publication US20240166626A1, “Compounds and Methods for Preventing, Treating, or Ameliorating Airway Disease” (THOMAS JEFFERSON UNIVERSITY, priority 2021, published 2024).
# For at least one compound, name, drawing or mass did not settle the structure.
# Tested on: HASM cells
# Assay: Human airway smooth muscle cell scratch (migration) assay
# Type: cell-based
# Conditions: 24 hours post scratch, 20 ng/mL PDGF, relative to PDGF alone
# Method: FIGS. 4A-4F: DFPQ inhibits internalization of the β2AR and protects from agonist induced desensitization in cell and tissue models. FIG. 4A: Effect of DFPQ on agonist-promoted internalization of the β2AR. HEK 293 cells stably expressing FLAG-β2AR were pre-incubated with 0.1% DMSO or 10 μM DFPQ for 30 min and then stimulated with the indicated concentrations of ISO for up to 60 min. Cells were fixed and receptor surface expression was measured by ELISA. […] Cells were lysed and cAMP production was measured by ELISA. […] FIG. 4C: Mouse airway tissue were contracted with 1 μM methacholine for 5 min and then incubated overnight with 1 μM ISO±1 μM DFPQ. […] Airway contractility was measured by luminal area of bronchioles by microscopy at various times. […]
# Cell culture GLOSENSOR™ cells (Promega) were maintained in Dulbecco's modified Eagle's medium (DMEM) containing 10% fetal bovine serum (FBS) and 200 μg/ml Hygromycin B. […]® ADRB2 cells (DiscoveRx) were maintained with the AssayComplete™ Cell Culture kit (DiscoveRx catalog #92-3107G). […] Cells were read every three minutes for 18 minutes on a PolarStar Optima plate reader (BMG) to establish peak signal. ISO was added to each well to a final concentration of 1 μM, and luminescence was determined in kinetic mode at room temperature (23-25° C.). […] Luminescence was determined at room temperature (23-25° C.) on a PolarStar Optima plate reader (BMG). […]
structure (smiles),measurement,value
C=C[C@@]1(C)CC(=O)[C@]2(O)[C@@]3(C)[C@@H](O)CCC(C)(C)[C@@H]3[C@H](O)[C@H](OC(C)=O)[C@@]2(C)O1 [forskolin],HASM cell migration into scratched area,effectively inhibited migration
